Laboratory results: the supplement of paper PMC4604168 (melanoma cell lines)
The list shows a part of the results. Repeats are few or missing, and single values can be far off.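 Imaging used 1,536-well plates; nuclei positive for cleaved PARP by antibody were divided by total DNA-stained nuclei to yield the apoptosis fraction. Doses for screening kept most cells viable, and cell lines differ markedly in resting and induced cleaved-PARP levels.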

Experiments:
Experiment in all cases: cleaved PARP positive nuclei fraction relative to DMSO control; melanoma cells; higher = more apoptosis
Details in all cases: library dose: low library concentration; 72 h
[1] = tested on: MZ2-MEL
[2] = tested on: MeWo
[3] = tested on: RPMI7951
[4] = tested on: RVH-421
[5] = tested on: SkMel28
[6] = tested on: SkMel2
[7] = tested on: SkMel30
[8] = tested on: UACC62

Compound | cleaved PARP positive nuclei fraction [1] | cleaved PARP positive nuclei fraction [2] | cleaved PARP positive nuclei fraction [3] | cleaved PARP positive nuclei fraction [4] | cleaved PARP positive nuclei fraction [5] | cleaved PARP positive nuclei fraction [6] | cleaved PARP positive nuclei fraction [7] | cleaved PARP positive nuclei fraction [8]
C[C@@H](N)c1ccc(C(=O)Nc2ccnc3[nH]ccc23)cc1 + CNC(=O)c1cc(Oc2ccc(NC(=O)Nc3ccc(Cl)c(C(F)(F)F)c3)cc2)ccn1 [sorafenib] (first compound 0.4 µM, partner dose 0.4 µM) | 292% | 126% | 723% | 47.8% | 44.7% | 89.2% | 52.3% | 140%
COc1ccc(C2=N[C@@H](c3ccc(Cl)cc3)[C@@H](c3ccc(Cl)cc3)N2C(=O)N2CCNC(=O)C2)c(OC(C)C)c1 [Nutlin-3] + OCc1c[nH]c2ccccc12 [Indole-3-carbinol] (first compound 0.1 µM, partner dose 0.8 µM) | 80.5% | 106% | 268% | 131% | 273% | 95.6% | 115% | 200%
NC(=O)c1ccc(N(C(N)=O)c2c(F)cccc2F)nc1-c1ccc(F)cc1F + O=C(O)c1ccc2c(c1)nc(Nc1cccc(Cl)c1)c1ccncc12 [CX4945] (first compound 0.4 µM, partner dose 0.4 µM) | 71.3% | 176% | 52.2% | 217% | 139% | 58.7% | 68.3% | 68%
CS(=O)(=O)c1ccc(C(=O)Nc2ccc(Cl)c(-c3ccccn3)c2)c(Cl)c1 [vismodegib] + Cc1nc(Nc2ncc(C(=O)Nc3c(C)cccc3Cl)s2)cc(N2CCN(CCO)CC2)n1 [dasatanib] (first compound 1 µM, partner dose 0.004 µM) | 50.6% | 170% | 134% | 59.8% | 89.2% | 51.9% | 39.4% | 111%
CS(=O)(=O)c1ccc(C(=O)Nc2ccc(Cl)c(-c3ccccn3)c2)c(Cl)c1 [vismodegib] + OCc1c[nH]c2ccccc12 [Indole-3-carbinol] (first compound 1 µM, partner dose 0.8 µM) | 33.8% | 31.5% | 100% | 68.5% | 124% | 109% | 90.8% | 145%
NC(=O)c1ccc(N(C(N)=O)c2c(F)cccc2F)nc1-c1ccc(F)cc1F + CC(C)C[C@H](NC(=O)[C@H](Cc1ccccc1)NC(=O)c1cnccn1)B(O)O [Bortezomib] (first compound 0.4 µM, partner dose 0.001 µM) | 118% | 91.1% | 171% | 58% | 75.6% | 26.4% | 51.8% | 170%
CCCCCCCCc1ccc(CCC(N)(CO)CO)cc1 [fingolimod] + Nc1ccn([C@@H]2O[C@H](CO)[C@@H](O)C2(F)F)c(=O)n1 [gemcitabine] (first compound 2 µM, partner dose 0.0004 µM) | 107% | 77.4% | 227% | 36.8% | 95.2% | 30.5% | 105% | 143%
CC(=O)O[C@@]12CO[C@@H]1C[C@H](O)[C@@]1(C)C(=O)[C@H](O)C3=C(C)[C@@H](OC(=O)[C@H](O)[C@@H](NC(=O)OC(C)(C)C)c4ccccc4)C[C@@](O)([C@@H](OC(=O)c4ccccc4)[C@H]21)C3(C)C [Docetaxel] + COc1ccc(Cl)c(Nc2nc3ccccc3nc2NS(=O)(=O)c2cccc(NC(=O)C(C)(C)N)c2)c1 [XL147] (first compound 0.0001 µM, partner dose 0.8 µM) | 373% | 556% | 178% | 578% | 271% | 732% | 248% | 474%
CCCCCCCCc1ccc(CCC(N)(CO)CO)cc1 [fingolimod] + O=C(O)[C@@H]1[O][Sb](=[O])([O][Sb]2(=[O])[O][C@H]([C@H](O)CO)[C@H](O)[C@H](C(=O)O)[O]2)[O][C@H]([C@H](O)CO)[C@@H]1O [stibogluconate] (first compound 2 µM, partner dose 2 µM) | 73.8% | 98.7% | 68.9% | 79.8% | 54.8% | 84.4% | 36.6% | 74.9%
COc1ccc(C2=N[C@@H](c3ccc(Cl)cc3)[C@@H](c3ccc(Cl)cc3)N2C(=O)N2CCNC(=O)C2)c(OC(C)C)c1 [Nutlin-3] + CS(=O)(=O)CCNCc1ccc(-c2ccc3ncnc(Nc4ccc(OCc5cccc(F)c5)c(Cl)c4)c3c2)o1 [lapatinib] (first compound 0.1 µM, partner dose 0.8 µM) | 66.9% | 40.8% | 21.4% | 114% | 73% | 155% | 63.9% | 267%
CCN(CC)CCNC(=O)c1c(C)[nH]c(/C=C2\C(=O)Nc3ccc(F)cc32)c1C [sunitinib] + Nc1ncn([C@H]2C[C@H](O)[C@@H](CO)O2)c(=O)n1 [decitabine] (first compound 0.4 µM, partner dose 0.1 µM) | 88.2% | 169% | 103% | 161% | 96.8% | 67% | 114% | 110%

Part of the list above, as tab-separated lines:
Compound	cleaved PARP positive nuclei fraction [1]	cleaved PARP positive nuclei fraction [2]	cleaved PARP positive nuclei fraction [3]	cleaved PARP positive nuclei fraction [4]	cleaved PARP positive nuclei fraction [5]	cleaved PARP positive nuclei fraction [6]	cleaved PARP positive nuclei fraction [7]	cleaved PARP positive nuclei fraction [8]
NC(=O)c1ccc(N(C(N)=O)c2c(F)cccc2F)nc1-c1ccc(F)cc1F + O=C(O)c1ccc2c(c1)nc(Nc1cccc(Cl)c1)c1ccncc12 [CX4945] (first compound 0.4 µM, partner dose 0.4 µM)	71.3%	176%	52.2%	217%	139%	58.7%	68.3%	68%
CS(=O)(=O)c1ccc(C(=O)Nc2ccc(Cl)c(-c3ccccn3)c2)c(Cl)c1 [vismodegib] + Cc1nc(Nc2ncc(C(=O)Nc3c(C)cccc3Cl)s2)cc(N2CCN(CCO)CC2)n1 [dasatanib] (first compound 1 µM, partner dose 0.004 µM)	50.6%	170%	134%	59.8%	89.2%	51.9%	39.4%	111%
